Measurements published in PubChem BioAssay AID624297 (National Center for Advancing Translational Sciences (NCATS), 2012).
Hit rate of the full screen: of about 340,000 compounds, about 6,200 (1.8%) were called active. The shares of active, inactive and inconclusive entries below differ from those in the screen. Calls follow the shape of the dose curve; as a rule, active = well fitted activation curve with a large enough effect; inconclusive = small, poorly fitted or top-dose-only effect; inactive = no such curve, though single readings can be large or run the other way. A potency beside an inconclusive call is a rough fit, not a confirmed value.

assay: A quantitative high throughput screen for small molecules that induce DNA re-replication in SW480 colon adenocarcinoma cells.; also: nearly all actives have a fitted effect of over 55% in size; as to re-replication activation: % of control where 0% means no effect; settings: Hoechst DNA content imaging, 48 h; re-replication activation: at 46.1 µM (top of the series) unless noted
Summary of the method: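 DNA re-replication was detected as more nuclei of elevated Hoechst intensity after 48 hr exposure to compound (23 nL pinned per well of 250 cells).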
Potency is read from the fitted curve at half-maximal effect.

Row | Compound | re-replication activation | Potency
1 | COc1ccc(COC(=O)c2cc([N+](=O)[O-])ccc2N2CCOCC2)cc1F | inconclusive: 34% [activator] | 
2 | CCCCNC(=O)CN(Cc1ccco1)S(=O)(=O)c1ccc(C(C)=O)cc1 |  | inconclusive: 23.1 µM [activator, single point]
3 | COc1ccc(N2CCN(C(=O)NCc3ccc(C)cc3)CC2)cc1 |  | inconclusive: 41.1 µM [activator, partial curve, poor fit]
4 | CC1CCc2cc(F)ccc2N1S(=O)(=O)c1ccc(F)cc1 (centres undefined) |  | inactive
5 | O=C(N/N=C/c1ccccc1OC(=O)c1ccc2c(c1)OCO2)c1ccccc1 |  | inconclusive: 29.1 µM [activator, single point]
6 | CCOC(=O)C1CN(S(=O)(=O)c2ccc(C)cc2)CCN1S(=O)(=O)c1ccc(C)cc1 (centres undefined) |  | inactive
7 | Cc1nc(N2CCN(c3ccccn3)CC2)c2c(C)c(C(=O)Nc3ccc(F)cc3)sc2n1 |  | inconclusive: 29.1 µM [activator, single point]
8 | COc1ccc(S(=O)(=O)Nc2ccc3c(c2)C(=O)N([C@H](C)CO)C[C@H](C)[C@@H](CN(C)S(=O)(=O)c2cccs2)O3)cc1 |  | inconclusive: 7.31 µM [activator, partial curve, poor fit]
9 | Cc1nc2cc(C(=O)N3CCN(C)CC3)ccc2n1C |  | inconclusive: 29.1 µM [activator, single point]
10 | Cc1nc2c(C)cccc2c(SC(=N)N)c1CC=C(Cl)Cl |  | inconclusive: 0.259 µM [activator, full curve, poor fit]
11 | COc1ccc(C2NCCc3c2[nH]c2ccccc32)cc1COc1ccc(F)cc1 (centres undefined) |  | inconclusive: 23.1 µM [activator, single point]
12 | COc1ccc(/C=C/C(=O)NCc2ccc(F)cc2)cc1S(=O)(=O)N1CCOCC1 |  | inconclusive: 29.1 µM [activator, single point]
13 | Cc1cccc(-c2cc3nc4c(c(NCc5ccco5)n3n2)CCCC4)c1 |  | inconclusive: 29.1 µM [activator, single point]
14 | CCOc1ccc(-n2c(SCc3ccc([N+](=O)[O-])cc3)nnc2-c2ccc(OC)cc2)cc1 |  | inactive
15 | COc1ccc(-c2nc(NC(=O)C3CC(=O)N(Cc4ccco4)C3)sc2C)cc1 (centres undefined) |  | inactive
16 | CCOc1ccc(-c2nnc(Nc3ccc(OC)c(C(=O)N4CCCCC4)c3)c3ccccc23)cc1 |  | inconclusive: 20.6 µM [activator, single point]
17 | CC(C)(C)OC(=O)N1CCC(NC(=O)c2ncn(Cc3ccccc3)c2C(=O)NC2CCN(C(=O)OC(C)(C)C)CC2)CC1 |  | inconclusive: 18.4 µM [activator, partial curve, poor fit]
18 | Cc1ccccc1-c1noc(N)c1C#N |  | active: 5.17 µM
19 | Cn1c2c(c(=O)[nH]c1=O)C(c1ccc(O)cc1)C1=C(N2)c2ccccc2C1=O (centres undefined) |  | inconclusive: 23.1 µM [activator, single point]
20 | O=S(=O)(c1ccccc1)N(CC(O)Cn1c2ccccc2c2ccccc21)c1ccccc1 (centres undefined) |  | inconclusive: 29.1 µM [activator, single point]
21 | C=CCOc1ccc(/C=C/C(=O)OCC(=O)Nc2c(C)n(C)n(-c3ccccc3)c2=O)cc1 |  | inactive
22 | CCCOc1ccccc1C(=O)Nc1ccc(S(=O)(=O)N2CCN(C)CC2)cc1 |  | inconclusive: 2.91 µM [activator, single point]
23 | COc1ccc(NCc2ccc(OC)c(Cn3ccnc3)c2)c(OC)c1 |  | inactive

A different layout for part of the listing above:
Row,Compound,re-replication activation,Potency
10,Cc1nc2c(C)cccc2c(SC(=N)N)c1CC=C(Cl)Cl,,"inconclusive: 0.259 µM [activator, full curve, poor fit]"
11,COc1ccc(C2NCCc3c2[nH]c2ccccc32)cc1COc1ccc(F)cc1 (centres undefined),,"inconclusive: 23.1 µM [activator, single point]"
12,COc1ccc(/C=C/C(=O)NCc2ccc(F)cc2)cc1S(=O)(=O)N1CCOCC1,,"inconclusive: 29.1 µM [activator, single point]"

Following part

Row | Compound | re-replication activation | Potency
24 | COc1ccc(-c2ccc(NC(=O)c3ccco3)cc2)nn1 |  | inconclusive: 1.46 µM [activator, partial curve, poor fit]
25 | COc1ccc(NC(=O)CSCc2cc(=O)n3c(C)csc3n2)cc1 |  | inactive
26 | COc1ccc(CNC(=O)[C@H](C)[C@@H]2C[C@@]2(C)[C@@H](NC(=O)OCc2ccccc2)c2ccccc2)cc1OC |  | inconclusive: 23.1 µM [activator, partial curve, poor fit]
27 | O=C1Nc2ccccc2/C1=C/c1cccnc1 |  | inconclusive: 29.1 µM [activator, single point]
28 | CCOC(=O)c1[nH]c(C)c(C(=O)Nc2ccccc2C)c1C |  | inconclusive: 0.92 µM [activator, full curve, poor fit]
29 | COc1ccc([N+](=O)[O-])cc1Nc1c2ccccc2nc2ccccc12 |  | inconclusive: 8.2 µM [activator, partial curve, poor fit]
30 | O=C(OCCOc1ccc(Br)cc1)c1ccc(Cl)c(S(=O)(=O)N2CCOCC2)c1 |  | inactive
31 | O=C(CCCC(=O)Nc1cccc(Br)c1)N/N=C/c1cc([N+](=O)[O-])ccc1O |  | inconclusive: 20.6 µM [activator, single point]
32 | O=C(NCc1cccc(C(F)(F)F)c1)c1ccc(=O)[nH]c1 |  | inactive
33 | O=C(NCCc1ccccc1)c1ccc2nc(-c3ccco3)c(-c3ccco3)nc2c1 |  | inconclusive: 16.4 µM [activator, single point]
34 | Cc1ccc(S(=O)(=O)N2CCCC(C(=O)NCc3ccccn3)C2)cc1 (centres undefined) |  | inactive
35 | O=C1CC(c2cc(-c3ccccc3)no2)C1 |  | inactive
36 | CCCS(=O)(=O)c1ccc(COC(=O)c2ccc(NC(C)=O)cc2)cc1 |  | inconclusive: 32.6 µM [activator, single point]
37 | Nc1cc(=O)[nH]n1C1CCCC1 |  | inconclusive: 29.1 µM [activator, partial curve, poor fit]
38 | CC(C)(C)NC(=O)CN(c1cccc([N+](=O)[O-])c1)S(=O)(=O)c1ccccc1 |  | inactive
39 | Cc1ccc(Cn2ncc3c(N4CCN(C)CC4)ncnc32)cc1 |  | inactive
40 | CCOc1ccc(OCC)c(NC(=O)CSc2nc3c(c(=O)n(C)c(=O)n3C)n2CC)c1 |  | inactive
41 | N#CC(C#N)=Cc1ccc(NC(=O)c2ccc(Br)cc2)cc1 |  | inconclusive: 29.1 µM [activator, single point]
42 | O=C(NNC(=S)NC(=O)c1ccco1)c1ccc(NC(=O)c2ccccc2)cc1 |  | inconclusive: 20.6 µM [activator, partial curve, poor fit]
43 | Cc1ccc(CNCCCn2cnc(C(=O)Nc3ccc(C)c(C)c3)n2)o1 |  | inactive
44 | COc1ccccc1N1C(=O)c2cccnc2C1=O |  | inactive
45 | Cc1c(C(=O)NC2CCCCC2C)oc2ccccc12 (centres undefined) |  | inactive
46 | N#Cc1cc(Cl)c(NCC2CCCO2)cc1C#N (centres undefined) |  | inconclusive: 25.9 µM [activator, partial curve, poor fit]

Row | Compound | re-replication activation | Potency
47 | CC1CC(=Cc2ccc([N+](=O)[O-])cc2)C(=O)O1 (centres undefined) |  | inactive
48 | O=C(COc1ccc(Cl)cc1)Nc1nnc(-c2ccc3c(c2)CCCC3)o1 |  | inactive
49 | O=C(Nc1ccc(S(=O)(=O)Nc2ccccc2)cc1)C1CC1 |  | inconclusive: 29.1 µM [activator, single point]
50 | Cc1cccc(NC(=O)CSc2nnc(Cc3ccccc3)o2)c1 |  | inconclusive: 29.1 µM [activator, single point]
51 | COc1ccccc1C(CNc1ncnc2sc(C)c(C)c12)N(C)C (centres undefined) |  | inconclusive: 18.4 µM [activator, single point]
52 | COc1cc(-c2ccc(NC(C)=O)c(OC)c2)ccc1NC(C)=O |  | inactive
53 | CCOc1ccc2nc(N(CCCN(C)C)C(=O)c3ccc4c(c3)CCCC4)sc2c1 |  | inconclusive: 29.1 µM [activator, single point]
54 | COc1ccc(N2CCN(S(=O)(=O)CCNC(=O)c3ccc(Br)o3)CC2)cc1 |  | inconclusive: 4.61 µM [activator, full curve, poor fit]
55 | COc1cc2c(cc1NC(=O)CSc1nccn1C)oc1ccccc12 |  | inconclusive: 16.4 µM [activator, partial curve, poor fit]
56 | CN(C)CCC(=O)c1ccc(Cl)cc1 |  | inconclusive: 29.1 µM [activator, single point]
57 | O=C(CSc1nnc(-c2ccccc2)n1Cc1ccccc1)NNC(=O)c1ccccc1O |  | active: 5.17 µM
58 | Cn1ccnc1SCC(=O)Nc1ccc2c(c1)OCCO2 |  | inconclusive: 6.51 µM [activator, single point]
59 | CCCCC(=O)Nc1ccc2c(c1)oc1ccccc12 |  | inconclusive: 23.1 µM [activator, partial curve, poor fit]
60 | Cc1cccc(NC(=O)CSc2nc(C)nc3c2c(=O)n(C)c(=O)n3C)c1 |  | inactive
61 | Cc1cc(NC(=S)NC(=O)CC(C)C)ccc1Br |  | inconclusive: 18.4 µM [activator, single point]
62 | Cc1cc(C)nc(NNS(=O)(=O)c2ccc(F)c(Cl)c2)n1 |  | inactive
63 | COC(=O)c1ccc(C(=O)OC)c(NC(=O)CN2CCN(c3ccccc3)CC2)c1 |  | inconclusive: 29.1 µM [activator, partial curve, poor fit]
64 | Cc1cccc(NC(=O)CSCC(=O)N2CCCc3ccccc32)c1 |  | inactive
65 | N#CCCN1CCN(Cc2ccccc2)CCC1=O | inactive: -13% [at 9.22 µM] | 
66 | CCN(CC)c1ccc(NC(=O)c2ccc(=O)[nH]c2)cc1S(=O)(=O)Nc1ccc(OC)cc1 |  | inconclusive: 20.6 µM [activator, single point]
67 | O=C(NNC(=O)C12CC3CC(CC(C3)C1)C2)c1cccc(O)c1 |  | inconclusive: 29.1 µM [activator, single point]
68 | Cc1ccc(O)c(-c2cc(C(=O)Nc3ccc(S(=O)(=O)N4CC(C)OC(C)C4)cc3)[nH]n2)c1 (centres undefined) |  | inactive
69 | CCCN=C1N(CC)C[C@@H]2[C@@H]3C(=O)N(Cc4ccccc4)C(=O)[C@@H]3[C@](C)(C(=O)OC)N12 |  | inconclusive: 1.3 µM [activator, single point]
